# Experimental data: patent publication US12263143B2, “Ionic channel modulation as a method for treating tumors through inflammasome activation” (priority 2019, dated 2025)
# At least one compound was matched to its structure with a doubt left.
# Tests used:
# NLRP3 inflammasome = NLRP3 inflammasome activation in LPS/ATP-treated BMDCs, IL-1β in culture supernatant by ELISA; assay type: cell-based; settings: mouse BMDCs, LPS 0.25 μg/ml for 3 hr and ATP 0.5 mM, vs vehicle control (DMSO)
# Experimental: (§1) Triggering inflammasome activation: Mouse bone marrow-derived dendritic cells (BMDCs) are treated with LPS and ATP to trigger NLRP3 inflammasome activation in the presence of vehicle control (DMSO) or the indicated ion channels modulators. IL-1β is measured in the culture supernatant by ELISA. • [IL-1β was used to measure the degree of inflammasome activation] • b. Inhibiting TORID-dependent ion flux: CHO-7 cells were transfected with TORID-1 and TORID-2 plasmids. Cells were then loaded with the Na^+-sensitive fluorescent dye-ANG-2-. ANG-2 mean fluorescence intensity (MFI) subtracting in each condition the MFI obtained in Na+-free buffer substituted with NMDG+ is shown. Cells left untreated or treated with the indicated drugs were studied • [MFI was used to measure the degree of inhibition of TORID-dependent ion flux.
# (§2) IL-1β was measured in the culture supernatant by ELISA. • B CHO-7 cells were transfected with Tmem176b (TORID-1) and Tmem176a (TORID-2)-mcherry-coding pSecTag2B plasmids. Cells were then loaded with the Na^+-sensitive fluorescent dye Asante NaTRIUM Green 2 (ANG-2). ANG-2 mean fluorescence intensity (MFI) subtracting in each condition the MFI obtained in Na^+-free buffer substituted with NMDG^+ is shown. Cells left untreated or treated with the indicated drugs were studied.
# [1] = tested on: Tmem176b (TORID-1) and Tmem176a (TORID-2); experiment: TORID-dependent ion flux, ANG-2 Na+-sensitive dye MFI in transfected CHO-7 cells; assay type: cell-based; settings: CHO-7 cells transfected with Tmem176b and Tmem176a-mcherry pSecTag2B plasmids, vs untreated cells
# Experimental: as §1, §2
compound,measurement,setting,value
CCCNCC(O)COc1ccccc1C(=O)CCc1ccccc1 (centres unmarked) [Propafenone],NLRP3 inflammasome activation (IL-1β in culture supernatant by ELISA),NLRP3 inflammasome,enhance NLRP3 inflammasome activation
same,"TORID activity (ANG-2 MFI, Na+-free NMDG+ buffer MFI subtracted)",[1],inhibit TORID activity
